Results published in the supplement of paper PMC12067093, “Discovery and optimisation of a covalent ligand for TRIM25 and its application to targeted protein ubiquitination” (Chemical Science, 2025).
The other results are listed elsewhere or left out.

Compound: Cc1cc(ccc1-c1ccccc1)C(=O)N1CCCN(CC1)C(=O)CCl [compound 10]
Experiment: probe-labelled cysteine peptide fold change vs DMSO (competition) (log2 fold change); higher = less target engagement (more negative = stronger competition)
Settings: THP-1, incubation time: 4 h
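Note: competitive profiling in live THP-1 cells: cysteine peptides tagged with an iodoacetamide desthiobiotin (IA-DTB) probe, intensity after compound treatment relative to DMSO-treated cells.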

Target	probe-labelled cysteine peptide fold change (10 µM)	probe-labelled cysteine peptide fold change (50 µM)
DLGAP5_Q15398_492_QFEGLVDDCEYKR (UniProt Q15398)	-0.0882	-0.0329
DIAPH3_Q9NSV4_663_IRPHEMTENCFWIK (UniProt Q9NSV4)	-0.0626	-0.468
DHRS7_Q9Y394_233_TELATYPGIIVSNICPGPVQSNIVENSLAGEVTK (UniProt Q9Y394)	0.0345	0.263
DNM1L_O00429_470_LHDAIVEVVTCLLR (UniProt O00429)	-0.156	-0.202
DNM2_P50570-3_427_CVDLVVSELATVIK (UniProt P50570)	0.029	0.263
DISC1_Q9NRI5_844_EAAASCMTAGVHEAQA (UniProt Q9NRI5)	-0.223	-0.323
DHX34_Q14147_628_SAQSSPECAAAR (UniProt Q14147)	-0.184	-0.504
DLGAP5_Q15398_696_SSIEDAQCPGLPDLIEENHVVNK (UniProt Q15398)	-0.229	-0.194
DHX9_Q08211_415_GATGCGK (UniProt Q08211)	-0.0278	-0.0317
DHX33_Q9H6R0_190_KYSCVILDEAHER (UniProt Q9H6R0)	-0.0316	-0.0932
DICER1_Q9UPY3_1584_AAQLFLCSLGLK (UniProt Q9UPY3)	0.111	0.268
DNAJB1_P25685_267_EALCGCTVNVPTLDGR (UniProt P25685)	0.328	0.116
DIAPH1_O60610_1227_KAGCAVTSLLASELTK (UniProt O60610)	-0.218	-1.27
DNMT1_P26358_580_HAQFVVEQVESYDEAGDSDEQPIFLTPCMR (UniProt P26358)	-0.0862	0.465
DHX38_Q92620_865_TGPGQCFR (UniProt Q92620)	0.0336	-0.0451
DHX29_Q7Z478_648_VCDELGCENGPGGR (UniProt Q7Z478)	0.0694	-0.0626
DNM1L_O00429_431_CVELVHEEMQR (UniProt O00429)	-0.0261	0.0516
DIS3_Q9Y2L1_549_RIDMVPELLSSNLCSLK (UniProt Q9Y2L1)	0.117	-0.21
DNAJC13_O75165_2110_RADTVGLACEAINR (UniProt O75165)	0.0477	0.108
DHX8_Q14562_1108_AICSGFFR (UniProt Q14562)	-0.267	0.29
DHX9_Q08211_1029_SSVNCPFSSQDMK (UniProt Q08211)	-5.51e-05	-0.148

Target	probe-labelled cysteine peptide fold change (10 µM)	probe-labelled cysteine peptide fold change (50 µM)
DNAJC3_Q13217_248_ISTLYYQLGDHELSLSEVRECLK (UniProt Q13217)	-0.168	-0.338
DNM2_P50570_86_TEHAEFLHCK (UniProt P50570)	-0.165	0.129
DLD_P09622_484_VCHAHPTLSEAFR (UniProt P09622)	0.032	0.0897
DNAAF5_Q86Y56_365_ILPALCHDITDWVVGTR (UniProt Q86Y56)	0.00399	-0.141
DIP2A_Q14689_6_GCPLEAAPLPAEVR (UniProt Q14689)	-0.41	-2.19
DHX29_Q7Z478_749_FSTYFTHCPILR (UniProt Q7Z478)	0.0241	0.37
DNAJC7_Q99615_164_KVVFCMDR (UniProt Q99615)	0.00491	-0.2
DHX37_Q8IY37_486_MLPAGGILVFLTGQAEVHALCR (UniProt Q8IY37)	0.185	0.636
DIAPH3_Q9NSV4_464_LIDECVSQIVLHR (UniProt Q9NSV4)	0.16	0.212
DHX57_Q6P158_453_INNPACHK (UniProt Q6P158)	-0.133	-0.392
DNAAF2_Q9NVR5_701_EYIEHCNTPTTDSDSSIAVK (UniProt Q9NVR5)	-0.224	-0.197
DNAJC13_O75165_1178_SILGHILPEAMVCYLENYEPEK (UniProt O75165)	0.018	0.138
DIDO1_Q9BTC0_1449_MCADVR (UniProt Q9BTC0)	-0.296	-0.358
DIDO1_Q9BTC0_261_PKPECEGYDPNALYCICR (UniProt Q9BTC0)	-0.286	-0.361
DNAJA1_P31689_271_RGEDLFMCMDIQLVEALCGFQK (UniProt P31689)	0.0341	0.385
DHX15_O43143_226_FEDCSSAK (UniProt O43143)	-0.00866	0.0648
DHX36_Q9H2U1_135_NTPCSENK (UniProt Q9H2U1)	-0.18	-0.294
DHX8_Q14562_670_ECLIDPDLTQYAIIMLDEAHER (UniProt Q14562)	0.285	-0.0706
DIS3_Q9Y2L1_492_HLCICSVDPPGCTDIDDALHCR (UniProt Q9Y2L1)	-0.0426	-0.201
DNAJB1_P25685_179_VSLEEIYSGCTK (UniProt P25685)	-0.0218	0.255
DHX9_Q08211_242_KLAAQSCALSLVR (UniProt Q08211)	0.0869	-0.183

Target	probe-labelled cysteine peptide fold change (10 µM)	probe-labelled cysteine peptide fold change (50 µM)
DNMT1_P26358_353_CIQCGQYLDDPDLK (UniProt P26358)	-0.0416	-0.155
DNM2_P50570_607_QIELACDSQEDVDSWK (UniProt P50570)	-0.211	0.0551
DNAJA1_P31689_302_CVLNEGMPIYR (UniProt P31689)	0.0431	0.091
DNAJC16_Q9Y2G8_709_YFCLFKPQK (UniProt Q9Y2G8)	-0.261	0.111
DNAJA1_P31689_180_IHQIGPGMVQQIQSVCMECQGHGER (UniProt P31689)	-0.0792	-0.0611
DIAPH2_O60879_884_TTLLHFIADICEEK (UniProt O60879)	0.136	0.0196
DNAJC7_Q99615_7_AAAAECDVVMAATEPELLDDQEAKR (UniProt Q99615)	-0.244	-0.523
DNAJC7_Q99615_7_AAAAECDVVMAATEPELLDDQEAK (UniProt Q99615)	0.116	0.335
DNM1_Q05193_427_CVDMVISELISTVR (UniProt Q05193)	0.252	-0.3
DIAPH1_O60610_164_DMPLLSCLESLR (UniProt O60610)	-0.0035	-0.0498
DHX57_Q6P158_221_MCDGDVGASLEHLLTQCFSETFGER (UniProt Q6P158)	-0.0821	-0.106
DLAT_P10515_291_DVPLGTPLCIIVEK (UniProt P10515)	0.111	0.148
DHTKD1_Q96HY7_808_TLVFCSGK (UniProt Q96HY7)	0.0936	0.131
DNAJC13_O75165_1432_ESPLLPAATELAFHTVNCSALNAEELRR (UniProt O75165)	0.104	0.0448
DHX35_Q9H5Z1_233_FRDFFNQNETSDPARDTCVILTVEGR (UniProt Q9H5Z1)	0.0242	-0.0107
DHX16_O60231_37_CTSAEEFVQR (UniProt O60231)	0.138	0.182
DHX38_Q92620_1028_NNNYSTIWCNDHFIHAK (UniProt Q92620)	-0.113	0.169
DHX37_Q8IY37_274_LKLPILSEEQVIMEAVAEHPIVIVCGETGSGK (UniProt Q8IY37)	0.0729	-0.0533
DNAJC13_O75165_884_CHEEIGPFTDTR (UniProt O75165)	-0.0153	0.254
DHX38_Q92620_20_GDTSEDASIHRLEGTDLDCQVGGLICK (UniProt Q92620)	0.197	-0.112
DHX15_O43143_774_IAPQYYDMSNFPQCEAKR (UniProt O43143)	-0.196	-0.633

Record cards, from the list above. Values in the order: probe-labelled cysteine peptide fold change (10 µM)	probe-labelled cysteine peptide fold change (50 µM)
DNAJA1_P31689_180_IHQIGPGMVQQIQSVCMECQGHGER (UniProt P31689) is listed as -0.0792	-0.0611
DHX38_Q92620_1028_NNNYSTIWCNDHFIHAK (UniProt Q92620) is listed as -0.113	0.169
DHX38_Q92620_20_GDTSEDASIHRLEGTDLDCQVGGLICK (UniProt Q92620) is listed as 0.197	-0.112
DLAT_P10515_291_DVPLGTPLCIIVEK (UniProt P10515) is listed as 0.111	0.148

Going on with the list.

Target	probe-labelled cysteine peptide fold change (10 µM)	probe-labelled cysteine peptide fold change (50 µM)
DNAJC7_Q99615_58_AIDMCPK (UniProt Q99615)	0.162	0.0415
DHTKD1_Q96HY7_392_LVGCAIIHVNGDSPEEVVR (UniProt Q96HY7)	-0.0572	-0.0728
DHRS7_Q9Y394_172_CVLPHMIER (UniProt Q9Y394)	-0.0215	-0.0909
DMRT1_Q9Y5R6_105_CNLIAER (UniProt Q9Y5R6)	0.107	0.406
DHX8_Q14562_1096_HKLDVVSCGK (UniProt Q14562)	0.0253	-0.0736
DNMT1_P26358_1339_ACQLSVVVDDKK (UniProt P26358)	-0.133	-1.16
DNASE2_O00115_327_GGGTLCAQLPALWK (UniProt O00115)	-0.108	0.06
DHRS9_Q9BPW9_60_KGFHVIAACLTESGSTALK (UniProt Q9BPW9)	0.098	-0.134
DHX16_O60231_932_VEVGLSSCQGDYIR (UniProt O60231)	-0.184	0.119
DNAJA2_O60884_146_NVLCSACSGQGGK (UniProt O60884)	-0.0087	-0.408
DLD_P09622_477_VLGAHILGPGAGEMVNEAALALEYGASCEDIAR (UniProt P09622)	0.198	0.0789
DLGAP5_Q15398_381_LPCPLGPLTVWHEEHVLNK (UniProt Q15398)	-0.0628	-0.373
DNAJC13_O75165_12_DLACFYTTK (UniProt O75165)	-0.0878	0.0962
DNAAF5_Q86Y56_349_RPVLGCR (UniProt Q86Y56)	0.0122	-0.193
DNASE1L1_P49184_187_DVILLGDFNADCASLTK (UniProt P49184)	0.0242	0.14
DHX30_Q7L2E3_118_QAAAAACQLFK (UniProt Q7L2E3)	-0.141	-0.108
DIEXF_Q68CQ4_311_HVYCLHVINHILK (UniProt Q68CQ4)	0.0373	0.107
DMXL1_Q9Y485_551_SIMMYACTK (UniProt Q9Y485)	-0.0984	-0.789
